Test results as given in patent US5135936A, “Isomers of 1-azabicyclo[2.2.2]oct-3-yl methyl 1,4-dihydro-2,6-dimethyl-4-(3-nitrophenyl)-3,5-pyridinediacarboxylic and their use as calcium antagonists” (Marion Merrell Dow Inc., priority 1991, dated 1992).

System: [3H]-Nitrendipine Binding in Rat Cortical Membranes
Assay: Inhibition of [3H]-Nitrendipine Binding in Rat Cortical Membranes
Details: displacement curve
Experimental: [3H]-Nitrendioine Bindino in Rat Cortex
Animals were decapitated and the cortical tissue was dissected, weighed and polytroned in about 20 volumes (w/v) of ice cold buffer ([…] TRIS HCl, pH 7.5). The tissue was then washed 3 times via centrifugation (20,000 rpm for 10 min at 4° C.) with subsequent resuspension in fresh buffer. The final pellet was resuspended prior to the assay at 22.5 mg/mL […]. Incubations were performed at room temperature for 90 min in each assay. These incubations were done in triplicate in a final assay volume of 2.0 mL. Non-specific binding was determined by the addition of 1 uM nifedipine for the [3H]-nitrendipine assay each to triplicate set of tubes. Reactions in each assay were terminated by filtration using a Brandel Cell Harvester followed by washing with ice cold buffer.
For preliminary evaluations in each assay, all compounds were examined at four log concentrations (1 nM-1 uM). full displacement curves were generated on all compounds showing inhibition of specific binding of 50% or greater at a 1 uM drug concentration. Standard reference compounds were included and evaluated in each assay. Analysis of data was done using both the EBDA Scafit program and HP-11C linear regression.

SMILES	Slope
COC(=O)C1=C(C)NC(C)=C(C(=O)O[C@H]2CN3CCC2CC3)[C@@H]1c1cccc([N+](=O)[O-])c1 [(R,R)-I, (R,R)-1-Azabicyclo[2.2.2]oct-3-yl methyl 1,4-dihydro-2,6-dimethyl-4-(3-nitrophenyl)-3,5-pyridinedicarboxylate]	1.02
COC(=O)C1=C(C)NC(C)=C(C(=O)O[C@H]2CN3CCC2CC3)[C@H]1c1cccc([N+](=O)[O-])c1 [(R,S)-I, (R,S)-1-Azabicyclo[2.2.2]oct-3-yl methyl 1,4-dihydro-2,6-dimethyl-4-(3-nitrophenyl)3,5-pyridinedicarboxylate]	0.99
